# From the supplement of paper PMC12823440, “Inhibitors supercharge kinase turnover through native proteolytic circuits” (Nature, 2025)
# Where a name gives a salt, the structure may show the parent alone. Some of the results follow. Hit calls seldom repeat between salt and free forms of one compound.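 Kinases, fused to nanoluciferase, were expressed in K562 cells; luminescence was measured every 4 h from 2 to 18 h as percent of control (DMSO = 100%, positive control = 0%). A time point is decreased if signal falls significantly (2 sigma). Hits were called by the authors by a rule that is not shown; the count of time points alone does not decide it.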
# Biological target: ZAK (UniProt Q9NYL2)
# Test: number of time points (of 5) at which kinase-Nluc abundance scored as decreased, DMSO-normalised (count); higher = more persistent destabilization
# Details: K562; 2-18 h
row,SMILES,number of time points
1,O=C(O)c1cc(N(Cc2ccccc2O)Cc2ccccc2O)ccc1O [Lavendustin B] (10 µM),0
2,Cc1ccc2c(Nc3cccc(Cl)c3F)nccc2c1NC(=O)c1csc2c(N)ncnc12 [Belvarafenib] (10 µM),0
3,Cn1cc(-c2cnc3cnn(S(=O)(=O)c4cnc5ccc(-c6cnn(C)c6)cn45)c3c2)cn1 [Glumetinib] (10 µM),0
4,CNC(=O)c1ccccc1Oc1nc(Nc2cc(OC)c(OC)c(OC)c2)ncc1Br (2.5 µM),0
5,COc1cc(-c2cn[nH]c2)ccc1C(=O)Nc1ccc2c(c1)CCNCC2 (10 µM),0
6,COCCNc1cc(NC(=O)N2CCCc3cc(CN4CCN(C)CC4=O)c(C=O)nc32)ncc1C#N [Roblitinib] (10 µM),0
7,CC(C)c1cc(/C=C(\C#N)C(=O)NCCCc2ccccc2)cc(C(C)C)c1O (10 µM),0
8,C=CCc1ccc(O)c(-c2ccc(O)c(CC=C)c2)c1 [Honokiol] (10 µM),0
9,CNc1nc(Nc2cn(C(C)(C)C#N)nc2C)ncc1C(F)(F)F (10 µM),0
10,C[C@@H]1CCNC(=O)c2cc3ccc(C(=O)Nc4nc5ccccc5n4CCCN(C)C)cc3n21 (10 µM),0
11,CCc1cncnc1N1CCN(Cc2nc3ccc(C(F)(F)F)cc3[nH]2)CC1 (10 µM),0
12,CCN(CC)CCC(=O)N1N=C(c2c(-c3ccccc3)c3cc(Br)ccc3[nH]c2=O)CC1c1ccc(Br)cc1 (centres undefined) (2.5 µM),0
13,Nc1cccc(-c2cc3c(Oc4cccc(O)c4)ncnc3[nH]2)c1 (10 µM),0
14,CCc1cccc(CC)c1NC(=O)N1Cc2[nH]nc(NC(=O)c3ccc(N4CCN(C)CC4)cc3)c2C1 (2.5 µM),0
15,COc1ccccc1C(=O)/C=C/c1ccccc1C(=O)O (10 µM),0
16,Cc1c(-c2ccc(C(N)=O)c3[nH]c4cc(C(C)(C)O)ccc4c23)cccc1-n1cnc2ccccc2c1=O (2.5 µM),0
17,O=C1NC(=O)/C(=C/c2ccc3nccc(-c4ccncc4)c3c2)S1 (10 µM),0
18,O=[N+]([O-])c1ccc(Nc2nc(N3CCOCC3)nc(N3CCOCC3)n2)cc1 (10 µM),0
19,Cc1cc(C)nc(NS(=O)(=O)c2ccc(NC(=S)NC(=O)COc3ccc(Br)cc3Cl)cc2)n1 (2.5 µM),0
20,CCCNC(=O)Nc1ccc(Oc2ncnc3cc(OC)c(OC)cc23)cc1Cl (2.5 µM),0

# Laid out differently: entries from further up.
row | SMILES | number of time points
3 | Cn1cc(-c2cnc3cnn(S(=O)(=O)c4cnc5ccc(-c6cnn(C)c6)cn45)c3c2)cn1 [Glumetinib] (10 µM) | 0
4 | CNC(=O)c1ccccc1Oc1nc(Nc2cc(OC)c(OC)c(OC)c2)ncc1Br (2.5 µM) | 0
7 | CC(C)c1cc(/C=C(\C#N)C(=O)NCCCc2ccccc2)cc(C(C)C)c1O (10 µM) | 0
8 | C=CCc1ccc(O)c(-c2ccc(O)c(CC=C)c2)c1 [Honokiol] (10 µM) | 0
10 | C[C@@H]1CCNC(=O)c2cc3ccc(C(=O)Nc4nc5ccccc5n4CCCN(C)C)cc3n21 (10 µM) | 0
11 | CCc1cncnc1N1CCN(Cc2nc3ccc(C(F)(F)F)cc3[nH]2)CC1 (10 µM) | 0
13 | Nc1cccc(-c2cc3c(Oc4cccc(O)c4)ncnc3[nH]2)c1 (10 µM) | 0
14 | CCc1cccc(CC)c1NC(=O)N1Cc2[nH]nc(NC(=O)c3ccc(N4CCN(C)CC4)cc3)c2C1 (2.5 µM) | 0
18 | O=[N+]([O-])c1ccc(Nc2nc(N3CCOCC3)nc(N3CCOCC3)n2)cc1 (10 µM) | 0
19 | Cc1cc(C)nc(NS(=O)(=O)c2ccc(NC(=S)NC(=O)COc3ccc(Br)cc3Cl)cc2)n1 (2.5 µM) | 0

# Next part.

row,SMILES,number of time points
1,CNC(=O)c1cc2c(Oc3ccc(NC(=S)NC(=O)Cc4ccccc4)cc3F)ccnc2cc1OC [TAS-115 mesylate] (10 µM),0
2,Cn1cc2cc(C(F)(F)c3nnc4ccc(-c5cnn(C6CC6)c5)nn34)c(F)cc2n1 [Bozitinib] (10 µM),0
3,COc1cc2ncnc(Nc3ccccc3)c2cc1OC (10 µM),0
4,Cc1cccc(-c2[nH]c(C(C)(C)C)nc2-c2ccc3nccnc3c2)n1 (10 µM),0
5,Oc1cc(O)c2c(c1)OC1(c3ccc(O)c(O)c3)Oc3cc(O)c4c(c3C2C1O)OC(c1ccc(O)c(O)c1)C(O)C4 (centres undefined) [Procyanidin A1] (10 µM),0
6,CC(C)C[C@@H](C(=O)Nc1ccn(C[C@@H](O)CO)n1)N1CC(Oc2ccccc2Cl)=CC1=O [Dorzagliatin] (10 µM),0
7,C=CC(=O)Nc1cc(Nc2nccc(-n3cc(CN(C)C)c(-c4ccccc4)n3)n2)c(OC)cc1N1CCOCC1 [Lazertinib] (10 µM),0
8,CC(=O)c1c(C)c2cnc(Nc3ccc(N4CCN(C(=O)CNc5cccc6c5C(=O)N(C5CCC(=O)NC5=O)C6=O)CC4)cn3)nc2n(C2CCCC2)c1=O (centres undefined) (10 µM),0
9,CC(C)(C)n1nc(Cc2ccccc2O)c2c(N)ncnc21 (10 µM),0
10,c1ccc(-c2nc(=NCCN3CCOCC3)sn2-c2ccccc2)cc1 [VP3.15 (dihydrobromide)] (10 µM),0
11,NC(=O)N1CCC(CC(=O)N2CCC([C@H]3c4ncc(Br)cc4CCc4cc(Cl)cc(Br)c43)CC2)CC1 [Lonafarnib] (2.5 µM),0
12,O=c1cc(-c2cccc3c2Sc2ccccc2S3)oc(N2CCOCC2)c1 (10 µM),0
13,CN1CC[C@@H](c2c(O)cc(O)c3c(=O)cc(-c4ccc(C(F)(F)F)cc4Cl)oc23)[C@@H]1CO [Voruciclib (hydrochloride)] (10 µM),0
14,CC(=O)N1CCC(c2cc(-c3ccc(NC(=O)c4cccn(-c5ccc(F)cc5)c4=O)cc3F)c3c(N)ncnn23)CC1 (0.5 µM),0
15,CC(C)(C[C@H](N)C(=O)O)C(F)F [NV-5138 (hydrochloride)] (10 µM),0
16,CC/C(=N\NC(=O)c1ccnc(NCCCN2CCOCC2)c1)c1ccc(Cl)cc1O (2.5 µM),0
17,CC(C)CNc1ccnc(NCc2csc(-c3ccccc3)n2)n1 [KHS101 hydrochloride] (2.5 µM),0
18,Nc1nccc(Oc2ccc(NC(=O)c3c[nH]cc(-c4ccc(F)cc4)c3=O)cc2F)c1Cl (10 µM),0
19,Cc1nc(-c2cnn(C)c2)nc2c1[nH]c1ncc(-c3ccc(N4CCN(C)CC4)cc3)cc12 [GNE 220 (hydrochloride)] (10 µM),0
